# Experiment: Compound concentration in tissue of mice of the GCase enhancement study
# Format: in vivo, mouse
# Conditions: brain
# Experimental: The dosing solutions were prepared in water. Compounds were administered over 2 weeks as follows: week 1, Mon-Fri (On), Sat-Sun (Off); week 2, Mon-Thu (On); necropsy on Friday.
# Plasma was collected by spinning blood at 2700 g for 10 minutes at 4° C. Liver, spleen, lung, and brain tissues were removed, washed in cold PBS, blotted dry, flash frozen on dry ice, and stored at −80° C. until analysis. GCase levels were measured by homogenizing approximately 50 mg tissue in 500 μL McIlvane (MI) buffer (100 mM sodium citrate, 200 mM sodium phosphate dibasic, 0.25% sodium taurocholate, and 0.1% Triton X-100, pH 5.2) at pH 5.2 for 3-5 seconds on ice with a micro homogenizer. Homogenates were then incubated at room temperature without and with 2.5 mM conduritol-B-epoxide (CBE) for 30 min. Finally, 3.7 mM 4-methylumbeliferryl-β-glucoside (4-MUG) substrate was added and incubated at 37° C. for 60 min. […] Fluorescence was measured on a plate reader for 1 sec/well using 355 nm excitation and 460 nm emission. Total protein was determined in lysates using the MicroBCA kit according to the manufacturer's instructions. A 4-methylumbelliferone (4-MU) standard curve ranging from 1.0 nM to 50 μM was run in parallel for conversion of raw fluorescence data to absolute GCase activity (in the presence and absence of CBE) and expressed as nanomoles of 4-MU released per milligram of protein per hour (nmol/mg protein/hr). GCase levels and protein levels were calculated using Microsoft Excel (Redmond, Wash.) and GraphPad Prism version 4.02.
SMILES,Compound concentration in GCase assay (μM) (10 mg/kg FBE p.o.),Compound concentration in GCase assay (100 mg/kg FBE p.o.),Compound concentration in GCase assay (10 mg/kg FBE p.o.)
"CC[C@@H](F)[C@H]1CNC[C@@H](O)[C@@H]1O.Cl [(3R,4R,5S)-5-((R)-1-fluoropropyl)-piperidine-3,4-diol hydrochloride]",BLQ,0.0001 µM,–
"Cl.O[C@H]1[C@H](O)CNC[C@@H]1C(F)F [Cmpd 6, (3R,4R,5S)-5-(Difluoromethyl)piperidine 3,4-diol Hydrochloride]",–,0.0010 µM,0.0002 µM

# — US8604206B2, “Compositions for preventing and/or treating degenerative disorders of the central nervous system” (Amicus Therapeutics, Inc., priority 2009, dated 2013)
